Assay results as given in PubChem BioAssay AID1347076 (National Center for Advancing Translational Sciences (NCATS), 2019).
About 13,000 (3.2%) of roughly 400,000 compounds were called active. The shares of active, inactive and inconclusive entries below differ from those in the screen. Calls come from the whole dose curve; as a rule, active = well fitted cell-killing curve with a large enough effect; inconclusive = small, poorly fitted or top-dose-only effect, or effect the other way; inactive = flat fitted curve, though single readings scatter. Potencies beside an inconclusive call are fits to weak or partial responses and may not hold up.

Test: qHTS assay for MDR1-selective chemotherapeutics: Primary screen using the drug-selected MDR subline cells KB-V1; note: nearly all actives have a fitted effect of over 60% in size
Conditions: KB-V1 MDR cells viability, CellTiter-Glo, 72 h; activity change, negative = cytotoxicity: at 46.1 µM (top of the series)
In short: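 Potencies derive from concentration-effect curves fitted to normalized luminescence (CellTiter-Glo) of KB-V1 cells treated for 72 h at 37 degrees C in phenol-red-free DMEM containing 10% FBS.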
% is set by controls: 0 for no effect and ±100 for the full control effect; potency is the fitted concentration of half-maximal effect.

SMILES	Potency	activity change, negative = cytotoxicity
O=C(OCC(=O)N1CCc2ccccc21)c1c2c(nc3ccccc13)CCCC2	active: 9.2 µM	–
Cn1c(CCNC(=O)C2CCCCC2)nc2cc([N+](=O)[O-])ccc21	inconclusive: 20.6 µM [cytotoxic, single point]	–
O=C(O)c1cc(Cl)ccc1OS(=O)(=O)c1ccc(Cl)s1	inconclusive: 8.2 µM [rising, partial curve, poor fit]	–
CC1(C)N=C(SCC(=O)Nc2ccc(Cl)cc2)C(c2ccccc2)=N1	inconclusive: 29.1 µM [cytotoxic, single point]	–
Cc1ccc(NC(=O)CSc2nc(=O)n(Cc3ccncc3)c3c2CCC3)c(C)c1	–	inactive: -26.7%
COc1ccc(CC(=O)NNC(=S)NCC2CC2)cc1OC	inconclusive: 0.0058 µM [cytotoxic, full curve]	–
Cn1c(SCC(=O)c2ccc3c(c2)NC(=O)CO3)nc2ccccc21	inconclusive: 29.1 µM [rising, single point]	–
CC(=O)OCC(=O)Nc1cc(S(=O)(=O)N2CCCCCC2)ccc1Cl	–	inactive: -2.79%
O=C(NCCCc1ccccc1)C1CC(=O)N(c2ccc3c(c2)OCCO3)C1 (stereo unspecified)	active: 23.1 µM	–
C=CCCC(=O)Nc1ccc(Br)cn1	inconclusive: 29.1 µM [cytotoxic, single point]	–
CSc1ccccc1OCc1cc(C(=O)N(C)Cc2nonc2C)no1	inconclusive: 13 µM [cytotoxic, partial curve]	–
CCOC(=O)c1cccc(NC(=O)CS(=O)(=O)Cc2nc(-c3cccc(OC)c3)oc2C)c1	inconclusive: 5.17 µM [cytotoxic, partial curve]	–
Nc1nc(NCc2ccco2)nc(N2CCCC2)c1[N+](=O)[O-]	inconclusive: 29.1 µM [cytotoxic, single point]	–
CC(=O)c1ccc(OCc2nnn(CC(=O)NS(=O)(=O)Cc3ccccc3)c2-c2ccccc2)cc1	inconclusive: 14.6 µM [rising, single point]	–
O=C(CN(c1ccccc1Cl)S(=O)(=O)c1ccccc1)NC1CC2CCC1C2 (stereo unspecified)	inconclusive: 9.2 µM [cytotoxic, partial curve, poor fit]	–
CCOC(=O)c1cc2c(=O)n3cccc(C)c3nc2n(CCOC)c1=NC(C)=O	inconclusive: 13 µM [cytotoxic, partial curve]	–
CCCn1c(C)cc(C(=O)CSc2nc3ccccc3c(=O)n2Cc2ccco2)c1C	inconclusive: 2.59 µM [cytotoxic, partial curve]	–
COc1cc(-c2cc3nc(NCCOc4ccccc4)ccn3n2)cc(OC)c1OC	active: 16.4 µM	–
Cc1cccc(-n2c(=O)c3c(c4cc(C)ccc4n3C)n(CC(=O)Nc3ccccc3C(F)(F)F)c2=O)c1	–	inactive: 15.8%
CCC(c1nnnn1-c1ccc2c(c1)OCCO2)N1CCN(c2ccccc2OC)CC1 (stereo unspecified)	active: 7.31 µM	–
Oc1ccc(Cl)cc1Sc1cc(Cl)ccc1O	inconclusive: 29.1 µM [cytotoxic, single point]	–
CCCC(Oc1ccc(Br)cc1)c1nc2c3cc(OC)c(OC)cc3nc(=S)n2[nH]1 (stereo unspecified)	inconclusive: 18.4 µM [cytotoxic, single point]	–
CCOC(=O)c1sc(Nc2ccc(C)cc2C)nc1C	inconclusive: 11.2 µM [cytotoxic, single point]	–

SMILES	Potency	activity change, negative = cytotoxicity
Cc1ccccc1OCC(O)Cn1c(=N)n(CCN2CCOCC2)c2ccccc21 (stereo unspecified)	inactive	–
Nc1ccccc1C(=O)NCCCN1CCOCC1	inconclusive: 23.1 µM [rising, single point]	–
O=C(N/N=C/c1ccccc1O)C1CC(=O)N(c2ccc(F)cc2)C1 (stereo unspecified)	inconclusive: 1.84 µM [cytotoxic, full curve, poor fit]	–
CC(=O)c1cccc(NC(=O)C(Sc2ncnc3ccccc23)c2ccccc2)c1 (stereo unspecified)	–	inactive: -3.64%
COc1ccc2cc(CCNC(=O)C(C)(C)C)c(=O)[nH]c2c1	–	inactive: 6.49%
CCOC(=O)C(=CNc1ccc(-c2ccco2)c(Cl)c1)C(=O)OCC	–	inactive: -4.74%
CCOC(=O)Nc1ccc2c3c(cccc13)-c1ccccc1-2	inconclusive: 18.4 µM [cytotoxic, single point]	–
Cc1cc(C)n2nc(SCC(=O)N3CC(C)CC(C)C3)nc2n1 (stereo unspecified)	inconclusive: 18.4 µM [cytotoxic, partial curve, poor fit]	–
CCS(=O)(=O)N1Cc2ccccc2CC1C(=O)Nc1nc2ccccc2[nH]1 (stereo unspecified)	–	inactive: -7.68%
Cc1cccc(C)c1NC(=O)CCCSc1nc2ccccc2s1	–	inactive: -16.2%
COC(=O)c1ccc(C(=O)OC)c(NC(=O)N2c3ccccc3Sc3ccccc32)c1	–	inactive: 8.29%
c1ccc(-c2ccccc2OCCN2CCCC2)cc1	–	inactive: 12.6%
CC(Oc1cccc(Cl)c1)C(=O)Nc1ccc(S(=O)(=O)N(C)C2CCN(C)CC2)cc1 (stereo unspecified)	active: 23.1 µM	–
Cc1ccc(S(=O)(=O)CCSc2cccc(C(=O)O)c2)cc1	–	inactive: 0%
CCOc1ccc(CCN2C(=O)CCC2(C)C(=O)NC(C)CC)cc1OCC (stereo unspecified)	inconclusive: 9.2 µM [cytotoxic, partial curve, poor fit]	–
CCn1c(=N)c(C(=O)NCc2cccnc2)cc2c(=O)n3cc(C)ccc3nc21	–	inconclusive: 45.2%
Cc1nn(-c2ccccc2)c(C)c1NC(=O)COC(=O)c1ccc(Cl)c(N)c1	inconclusive: 20.6 µM [rising, partial curve, poor fit]	–
CCOC(=O)CSc1nc2sc(C(=O)O)c(C)c2c(=O)[nH]1	–	inactive: -0.339%
COc1ccc(-c2cc(C(=O)Nc3cc(C)ccc3O)no2)cc1OC	inconclusive: 7.31 µM [rising, partial curve]	–
CSCCC(NC(=O)COc1ccccc1)C(=O)N1CCN(c2ccccc2O)CC1 (stereo unspecified)	inconclusive: 5.8 µM [cytotoxic, partial curve]	–
CCCc1nnc(NC(=O)CCC(=O)N2CCN(Cc3ccccc3)CC2)s1	–	inactive: -6.12%
Cc1noc(C)c1S(=O)(=O)N(C)C[C@H]1Oc2c(NC(=O)NC(C)C)cccc2C(=O)N([C@H](C)CO)C[C@@H]1C	–	inactive: -11.2%
Cn1c(-c2cccc(OCc3ccccc3)c2)nc2c1c(=O)[nH]c(=O)n2Cc1ccccc1	inconclusive: 9.2 µM [cytotoxic, partial curve, poor fit]	–

Four entries from above, sorted by molecular weight, low to high:
SMILES	Potency	activity change, negative = cytotoxicity
CCS(=O)(=O)N1Cc2ccccc2CC1C(=O)Nc1nc2ccccc2[nH]1 (stereo unspecified)	–	inactive: -7.68%
Cc1nn(-c2ccccc2)c(C)c1NC(=O)COC(=O)c1ccc(Cl)c(N)c1	inconclusive: 20.6 µM [rising, partial curve, poor fit]	–
CCCc1nnc(NC(=O)CCC(=O)N2CCN(Cc3ccccc3)CC2)s1	–	inactive: -6.12%
Cc1noc(C)c1S(=O)(=O)N(C)C[C@H]1Oc2c(NC(=O)NC(C)C)cccc2C(=O)N([C@H](C)CO)C[C@@H]1C	–	inactive: -11.2%
